# Measurements reported in the supplement of paper PMC6411743.
# Amino acid sequences for entries named in this document (tags omitted). A change or cut given only in a name is not applied to a line headed by its entry.
# UniProt Q13162: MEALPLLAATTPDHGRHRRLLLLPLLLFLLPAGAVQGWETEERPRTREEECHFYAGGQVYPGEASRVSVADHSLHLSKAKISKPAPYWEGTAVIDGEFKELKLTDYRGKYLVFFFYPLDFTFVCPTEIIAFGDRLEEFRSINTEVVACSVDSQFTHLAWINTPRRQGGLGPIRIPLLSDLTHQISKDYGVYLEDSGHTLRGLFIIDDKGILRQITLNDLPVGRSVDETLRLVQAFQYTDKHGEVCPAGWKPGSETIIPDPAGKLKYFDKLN
# UniProt Q5XKP0: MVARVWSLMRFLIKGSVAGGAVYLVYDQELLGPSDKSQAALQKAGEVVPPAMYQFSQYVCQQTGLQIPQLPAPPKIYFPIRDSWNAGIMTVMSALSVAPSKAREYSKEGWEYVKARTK
# UniProt Q8WV99: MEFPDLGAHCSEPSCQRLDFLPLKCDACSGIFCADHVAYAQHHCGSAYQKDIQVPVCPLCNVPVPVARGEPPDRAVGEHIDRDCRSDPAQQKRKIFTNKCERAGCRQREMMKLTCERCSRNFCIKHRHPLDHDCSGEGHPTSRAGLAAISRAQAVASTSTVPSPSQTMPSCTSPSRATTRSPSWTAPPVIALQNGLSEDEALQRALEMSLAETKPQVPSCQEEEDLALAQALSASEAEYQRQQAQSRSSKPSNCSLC
# UniProt Q9BUN8: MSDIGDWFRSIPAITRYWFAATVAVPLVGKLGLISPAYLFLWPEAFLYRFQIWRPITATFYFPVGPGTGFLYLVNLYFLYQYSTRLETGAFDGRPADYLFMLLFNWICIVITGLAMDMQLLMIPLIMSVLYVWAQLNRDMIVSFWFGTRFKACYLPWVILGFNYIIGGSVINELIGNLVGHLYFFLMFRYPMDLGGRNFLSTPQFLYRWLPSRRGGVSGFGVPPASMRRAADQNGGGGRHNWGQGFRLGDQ
# UniProt A6NHT5: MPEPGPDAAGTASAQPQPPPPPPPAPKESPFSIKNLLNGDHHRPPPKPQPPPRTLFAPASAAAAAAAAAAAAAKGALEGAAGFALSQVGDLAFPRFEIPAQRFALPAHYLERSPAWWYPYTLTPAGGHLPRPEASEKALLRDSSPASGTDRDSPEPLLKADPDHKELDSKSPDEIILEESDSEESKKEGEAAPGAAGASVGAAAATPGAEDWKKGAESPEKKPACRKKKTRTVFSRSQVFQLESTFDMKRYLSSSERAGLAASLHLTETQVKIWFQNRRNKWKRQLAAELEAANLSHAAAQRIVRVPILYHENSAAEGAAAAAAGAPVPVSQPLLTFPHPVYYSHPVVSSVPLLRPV
# UniProt A7KAX9: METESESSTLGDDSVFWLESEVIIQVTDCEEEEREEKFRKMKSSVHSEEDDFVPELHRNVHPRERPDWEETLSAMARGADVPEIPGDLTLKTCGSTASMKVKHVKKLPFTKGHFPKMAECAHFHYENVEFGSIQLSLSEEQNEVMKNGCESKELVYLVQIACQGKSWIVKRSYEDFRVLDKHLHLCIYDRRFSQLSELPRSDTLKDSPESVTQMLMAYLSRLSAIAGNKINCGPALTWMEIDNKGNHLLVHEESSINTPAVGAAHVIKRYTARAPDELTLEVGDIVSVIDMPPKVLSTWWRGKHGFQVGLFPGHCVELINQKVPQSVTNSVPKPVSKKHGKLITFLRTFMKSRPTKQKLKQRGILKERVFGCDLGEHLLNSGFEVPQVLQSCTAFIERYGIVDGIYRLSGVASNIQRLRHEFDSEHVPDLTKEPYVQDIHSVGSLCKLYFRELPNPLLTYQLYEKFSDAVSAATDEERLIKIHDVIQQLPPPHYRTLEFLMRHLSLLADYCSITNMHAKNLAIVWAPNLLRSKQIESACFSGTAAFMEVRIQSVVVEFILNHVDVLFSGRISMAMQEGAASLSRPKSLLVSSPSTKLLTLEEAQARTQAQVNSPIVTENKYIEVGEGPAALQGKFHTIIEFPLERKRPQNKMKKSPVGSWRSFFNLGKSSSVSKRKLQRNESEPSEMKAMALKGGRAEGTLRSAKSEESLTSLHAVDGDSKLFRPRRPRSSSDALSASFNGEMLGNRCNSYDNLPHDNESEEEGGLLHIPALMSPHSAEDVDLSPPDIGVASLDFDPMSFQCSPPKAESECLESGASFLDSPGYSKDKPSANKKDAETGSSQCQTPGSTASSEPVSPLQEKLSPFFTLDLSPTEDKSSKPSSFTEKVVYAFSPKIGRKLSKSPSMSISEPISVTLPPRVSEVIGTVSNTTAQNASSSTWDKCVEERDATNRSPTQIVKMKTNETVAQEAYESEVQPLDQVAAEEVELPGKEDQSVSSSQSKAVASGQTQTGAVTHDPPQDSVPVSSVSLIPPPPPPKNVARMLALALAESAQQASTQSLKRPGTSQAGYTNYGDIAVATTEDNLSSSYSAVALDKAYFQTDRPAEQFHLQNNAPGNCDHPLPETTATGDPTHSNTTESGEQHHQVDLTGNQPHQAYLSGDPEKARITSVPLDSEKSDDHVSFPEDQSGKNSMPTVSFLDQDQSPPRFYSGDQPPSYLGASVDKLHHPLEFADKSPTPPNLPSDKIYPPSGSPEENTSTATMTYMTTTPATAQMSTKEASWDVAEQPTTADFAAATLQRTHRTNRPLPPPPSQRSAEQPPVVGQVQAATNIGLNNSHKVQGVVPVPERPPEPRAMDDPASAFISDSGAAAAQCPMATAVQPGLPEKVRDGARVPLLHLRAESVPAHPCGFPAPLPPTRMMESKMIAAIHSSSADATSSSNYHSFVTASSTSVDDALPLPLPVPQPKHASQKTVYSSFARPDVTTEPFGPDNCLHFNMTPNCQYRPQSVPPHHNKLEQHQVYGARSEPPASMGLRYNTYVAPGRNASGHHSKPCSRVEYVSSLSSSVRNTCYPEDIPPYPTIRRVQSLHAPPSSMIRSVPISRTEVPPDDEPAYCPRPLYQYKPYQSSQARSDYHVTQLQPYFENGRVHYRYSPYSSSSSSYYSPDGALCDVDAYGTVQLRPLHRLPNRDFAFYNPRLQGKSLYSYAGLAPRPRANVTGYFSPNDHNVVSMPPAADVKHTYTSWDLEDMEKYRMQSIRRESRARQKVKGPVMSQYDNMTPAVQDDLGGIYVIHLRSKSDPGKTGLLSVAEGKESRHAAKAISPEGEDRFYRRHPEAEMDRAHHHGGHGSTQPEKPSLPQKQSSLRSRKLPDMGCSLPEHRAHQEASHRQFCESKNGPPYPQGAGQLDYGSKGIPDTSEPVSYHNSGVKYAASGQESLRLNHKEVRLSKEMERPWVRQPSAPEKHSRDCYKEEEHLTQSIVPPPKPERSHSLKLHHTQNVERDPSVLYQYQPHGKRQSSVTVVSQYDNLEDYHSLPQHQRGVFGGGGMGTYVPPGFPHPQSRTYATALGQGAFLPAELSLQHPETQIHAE
# UniProt O15504: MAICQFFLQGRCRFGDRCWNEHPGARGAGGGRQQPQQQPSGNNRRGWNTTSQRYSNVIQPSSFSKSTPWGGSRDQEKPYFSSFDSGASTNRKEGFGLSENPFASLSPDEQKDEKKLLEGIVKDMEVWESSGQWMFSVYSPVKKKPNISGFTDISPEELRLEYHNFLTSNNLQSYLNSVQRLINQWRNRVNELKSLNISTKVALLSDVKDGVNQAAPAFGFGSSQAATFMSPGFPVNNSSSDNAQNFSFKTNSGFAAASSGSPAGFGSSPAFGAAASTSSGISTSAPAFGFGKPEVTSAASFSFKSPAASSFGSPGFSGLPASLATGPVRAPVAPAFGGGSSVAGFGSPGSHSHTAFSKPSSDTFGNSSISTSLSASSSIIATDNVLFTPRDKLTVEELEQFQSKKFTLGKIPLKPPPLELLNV
# UniProt O75943: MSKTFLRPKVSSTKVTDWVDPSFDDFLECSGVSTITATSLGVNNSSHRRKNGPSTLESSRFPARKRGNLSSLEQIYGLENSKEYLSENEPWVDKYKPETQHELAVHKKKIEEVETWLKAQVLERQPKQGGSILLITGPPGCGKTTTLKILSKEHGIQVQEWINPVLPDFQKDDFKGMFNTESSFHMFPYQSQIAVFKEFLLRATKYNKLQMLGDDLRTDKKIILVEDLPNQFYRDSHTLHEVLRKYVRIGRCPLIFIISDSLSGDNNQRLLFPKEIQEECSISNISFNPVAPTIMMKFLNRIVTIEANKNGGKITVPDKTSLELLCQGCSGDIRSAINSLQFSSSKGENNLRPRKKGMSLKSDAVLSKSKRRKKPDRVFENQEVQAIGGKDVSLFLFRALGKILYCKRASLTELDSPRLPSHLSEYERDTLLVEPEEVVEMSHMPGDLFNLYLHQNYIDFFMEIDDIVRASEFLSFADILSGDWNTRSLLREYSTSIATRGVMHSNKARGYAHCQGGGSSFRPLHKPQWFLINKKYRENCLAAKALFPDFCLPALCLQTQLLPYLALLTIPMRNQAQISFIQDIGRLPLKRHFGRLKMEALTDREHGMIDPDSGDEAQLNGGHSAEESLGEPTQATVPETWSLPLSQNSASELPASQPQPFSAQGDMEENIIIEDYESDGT
# UniProt P20839, whole entry, looked up: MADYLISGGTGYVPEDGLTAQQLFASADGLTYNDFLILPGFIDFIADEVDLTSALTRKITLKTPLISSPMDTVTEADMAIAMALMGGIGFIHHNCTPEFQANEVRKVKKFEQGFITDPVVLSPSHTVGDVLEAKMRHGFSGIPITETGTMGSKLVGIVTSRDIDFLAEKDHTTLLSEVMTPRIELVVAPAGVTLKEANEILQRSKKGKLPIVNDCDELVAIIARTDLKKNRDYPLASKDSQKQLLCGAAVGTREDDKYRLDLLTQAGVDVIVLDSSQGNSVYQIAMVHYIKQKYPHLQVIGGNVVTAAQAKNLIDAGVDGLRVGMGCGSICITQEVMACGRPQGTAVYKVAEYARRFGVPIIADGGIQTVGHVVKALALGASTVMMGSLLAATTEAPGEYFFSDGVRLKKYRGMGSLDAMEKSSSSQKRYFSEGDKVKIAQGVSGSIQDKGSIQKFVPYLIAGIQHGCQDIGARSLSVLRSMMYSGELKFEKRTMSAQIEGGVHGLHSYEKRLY
# UniProt O43676, whole entry: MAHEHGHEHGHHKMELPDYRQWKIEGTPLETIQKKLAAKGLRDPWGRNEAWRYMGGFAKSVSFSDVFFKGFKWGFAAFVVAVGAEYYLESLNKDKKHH
# UniProt P30626: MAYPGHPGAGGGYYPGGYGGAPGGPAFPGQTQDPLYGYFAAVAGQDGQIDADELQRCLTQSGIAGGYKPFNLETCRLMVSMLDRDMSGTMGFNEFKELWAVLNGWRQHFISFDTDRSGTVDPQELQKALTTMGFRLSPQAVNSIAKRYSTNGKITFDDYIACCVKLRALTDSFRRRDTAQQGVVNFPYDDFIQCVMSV
# UniProt Q9UI95, whole entry: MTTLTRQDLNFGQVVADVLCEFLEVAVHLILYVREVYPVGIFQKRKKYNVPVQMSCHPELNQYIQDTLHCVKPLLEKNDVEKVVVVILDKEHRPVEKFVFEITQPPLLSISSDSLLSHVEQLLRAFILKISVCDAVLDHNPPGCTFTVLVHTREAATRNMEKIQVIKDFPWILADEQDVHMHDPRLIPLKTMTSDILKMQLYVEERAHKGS
# ± gives the standard deviation of the averaged measurements. Only a part is listed here, and it is no random draw. Most values lie at the level of the controls, where differences are scatter.
# Compound: Nc1ncnc2c1ncn2[C@@H]1O[C@H](COP(=O)(O)OP(=O)(O)OP(=O)(O)O)[C@@H](O)[C@H]1O [adenosine triphosphate]
# Assay: NP40-soluble protein abundance relative to vehicle (solubility fold change) (ratio); higher = more soluble protein in presence of ATP
# In short: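 Data come from three independent experiments in which Dounce-homogenised Jurkat crude lysate was treated at eight concentrations from 0.1 to 10 mM. Treatment ran 10 min at room temperature and then 3 min at 37 °C, after which 0.8% NP40 and benzonase were added for 60 min at 4 °C before ultracentrifugation. The supernatant underwent TMT labelling and LC-MS/MS, and vsn-normalised intensities were expressed as fold change against the detergent-processed vehicle in each replicate.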
Target,NP40-soluble protein abundance (concentration: 0.1mM),NP40-soluble protein abundance (concentration: 0.5mM),NP40-soluble protein abundance (concentration: 1mM),NP40-soluble protein abundance (concentration: 2mM),NP40-soluble protein abundance (concentration: 4mM),NP40-soluble protein abundance (concentration: 6mM),NP40-soluble protein abundance (concentration: 8mM),NP40-soluble protein abundance (concentration: 10mM)
A6NG45 and related entries (UniProt Q13162),1.06 ± 0.034,1.05 ± 0.04,1.07 ± 0.057,1.01 ± 0.042,0.975 ± 0.041,0.953 ± 0.07,1.03 ± 0.034,0.992 ± 0.033
C9JJN9 and related entries (UniProt Q8N3P4),1.02 ± 0.063,1.04 ± 0.038,1.01 ± 0.053,0.984 ± 0.04,0.994 ± 0.068,0.9606 ± 0.0047,0.955 ± 0.039,0.979 ± 0.023
A0A140TA86|Q5XKP0 (UniProt Q5XKP0),0.88 ± 0.07,0.863 ± 0.084,–,–,–,–,–,–
B4DEN4 and related entries (UniProt Q8WV99),0.983 ± 0.048,0.946 ± 0.026,0.955 ± 0.084,0.953 ± 0.046,0.943 ± 0.059,0.958 ± 0.066,0.91 ± 0.037,0.902 ± 0.062
B4E1G1 and related entries (UniProt Q9BUN8),1.01 ± 0.015,1.02 ± 0.049,0.948 ± 0.084,0.979 ± 0.12,0.989 ± 0.083,0.975 ± 0.1,0.955 ± 0.021,1 ± 0.056
HMX3 (UniProt A6NHT5),0.878 ± 0.12,0.765 ± 0.056,–,–,–,–,–,–
UniProt A7KAX9 and related entries,0.986 ± 0.057,0.924 ± 0.034,0.937 ± 0.054,0.91 ± 0.046,0.908 ± 0.0074,0.907 ± 0.024,0.904 ± 0.04,0.941 ± 0.018
B4DT96 and related entries (UniProt O15504),1.032 ± 0.0079,0.945 ± 0.11,0.985 ± 0.095,1.21 ± 0.19,1.29 ± 0.17,1.43 ± 0.42,1.42 ± 0.26,1.77 ± 0.49
A0A0G2JPT5|O75943 and related entries (UniProt O75943),1.16 ± 0.1,1.51 ± 0.21,1.49 ± 0.28,1.59 ± 0.3,1.62 ± 0.32,1.7 ± 0.33,1.69 ± 0.28,1.65 ± 0.33
A8MT02 and related entries (UniProt P14678),1.04 ± 0.14,1.06 ± 0.038,1.22 ± 0.14,1.34 ± 0.089,1.47 ± 0.05,1.7 ± 0.26,1.7 ± 0.22,1.63 ± 0.13
C9J381 and related entries (UniProt P20839),0.954 ± 0.031,1.03 ± 0.05,0.999 ± 0.049,0.9672 ± 0.0062,0.933 ± 0.018,0.695 ± 0.051,0.61 ± 0.018,0.581 ± 0.033
C9JKQ2 and related entries (UniProt O43676),0.906 ± 0.049,0.93 ± 0.074,0.921 ± 0.053,0.903 ± 0.08,0.867 ± 0.032,0.908 ± 0.048,0.862 ± 0.04,0.868 ± 0.042
C9J0K6 and related entries (UniProt P30626),0.872 ± 0.12,0.824 ± 0.2,0.887 ± 0.066,0.921 ± 0.078,0.892 ± 0.039,0.911 ± 0.072,0.896 ± 0.011,0.811 ± 0.12
B1AK44 and related entries (UniProt Q9UI95),1.01 ± 0.095,0.929 ± 0.068,0.999 ± 0.022,0.937 ± 0.037,0.978 ± 0.024,1.01 ± 0.087,1.05 ± 0.086,0.993 ± 0.059

# 2 entries from above, as tab-separated lines.
Target	NP40-soluble protein abundance (concentration: 0.1mM)	NP40-soluble protein abundance (concentration: 0.5mM)	NP40-soluble protein abundance (concentration: 1mM)	NP40-soluble protein abundance (concentration: 2mM)	NP40-soluble protein abundance (concentration: 4mM)	NP40-soluble protein abundance (concentration: 6mM)	NP40-soluble protein abundance (concentration: 8mM)	NP40-soluble protein abundance (concentration: 10mM)
C9J381 and related entries (UniProt P20839)	0.954 ± 0.031	1.03 ± 0.05	0.999 ± 0.049	0.9672 ± 0.0062	0.933 ± 0.018	0.695 ± 0.051	0.61 ± 0.018	0.581 ± 0.033
B1AK44 and related entries (UniProt Q9UI95)	1.01 ± 0.095	0.929 ± 0.068	0.999 ± 0.022	0.937 ± 0.037	0.978 ± 0.024	1.01 ± 0.087	1.05 ± 0.086	0.993 ± 0.059
